Data published in paper PMC11237593, “Human coronavirus OC43 nanobody neutralizes virus and protects mice from infection” (Journal of Virology, 2024).
These are yes or no findings as the source states them, for the method shown.

Assays:
Assay in all cases: condition: OC43 S1B+C from 3 to 100 nM or 16 to 250 nM; BLI; both purified
WNb 290 (alpaca) = target: WNb 290 (alpaca)
WNb 295 (alpaca) = target: WNb 295 (alpaca)
WNb 277 (alpaca) = target: WNb 277 (alpaca)
WNb 283 (alpaca) = target: WNb 283 (alpaca)

Measured: binding

OC43 S1B+C (S1B and S1C domains of the hCoV-OC43 spike glycoprotein) (from UniProt P36334 321-675) (domain or fragment)
no binding: all assays above
